Test results reported in publication PMC5996148.
“And” between values parts separate entries of the source, which are not always exact repeats. Identical values can stand only once. The list shows a part of the results. For some assays here: Construct or isoform of the protein are uncertain.

Sequences of proteins named here, by UniProt entry; tags and fusion partners are left off. A change or cut given only in a name is not applied to a line headed by its entry.
UniProt P14625, whole entry: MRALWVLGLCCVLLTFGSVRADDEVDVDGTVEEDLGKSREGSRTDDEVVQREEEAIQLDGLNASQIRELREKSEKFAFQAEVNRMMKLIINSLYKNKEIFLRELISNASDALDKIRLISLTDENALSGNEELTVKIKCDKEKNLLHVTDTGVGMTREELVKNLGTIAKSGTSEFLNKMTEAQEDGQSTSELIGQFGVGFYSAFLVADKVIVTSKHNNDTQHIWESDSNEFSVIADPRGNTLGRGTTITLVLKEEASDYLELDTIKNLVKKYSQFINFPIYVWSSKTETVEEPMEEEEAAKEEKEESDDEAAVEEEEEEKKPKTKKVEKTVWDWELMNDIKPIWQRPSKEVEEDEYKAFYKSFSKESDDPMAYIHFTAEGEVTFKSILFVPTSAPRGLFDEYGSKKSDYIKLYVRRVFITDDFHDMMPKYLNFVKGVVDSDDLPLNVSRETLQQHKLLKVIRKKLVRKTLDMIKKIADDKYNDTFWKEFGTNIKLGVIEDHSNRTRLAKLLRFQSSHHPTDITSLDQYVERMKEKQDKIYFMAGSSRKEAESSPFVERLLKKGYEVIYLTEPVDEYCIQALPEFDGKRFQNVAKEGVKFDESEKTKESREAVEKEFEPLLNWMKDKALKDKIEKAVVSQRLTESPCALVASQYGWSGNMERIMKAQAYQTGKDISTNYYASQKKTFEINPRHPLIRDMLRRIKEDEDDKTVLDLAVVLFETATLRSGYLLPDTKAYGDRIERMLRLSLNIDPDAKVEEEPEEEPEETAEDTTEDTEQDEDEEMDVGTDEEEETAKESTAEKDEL
UniProt P38646: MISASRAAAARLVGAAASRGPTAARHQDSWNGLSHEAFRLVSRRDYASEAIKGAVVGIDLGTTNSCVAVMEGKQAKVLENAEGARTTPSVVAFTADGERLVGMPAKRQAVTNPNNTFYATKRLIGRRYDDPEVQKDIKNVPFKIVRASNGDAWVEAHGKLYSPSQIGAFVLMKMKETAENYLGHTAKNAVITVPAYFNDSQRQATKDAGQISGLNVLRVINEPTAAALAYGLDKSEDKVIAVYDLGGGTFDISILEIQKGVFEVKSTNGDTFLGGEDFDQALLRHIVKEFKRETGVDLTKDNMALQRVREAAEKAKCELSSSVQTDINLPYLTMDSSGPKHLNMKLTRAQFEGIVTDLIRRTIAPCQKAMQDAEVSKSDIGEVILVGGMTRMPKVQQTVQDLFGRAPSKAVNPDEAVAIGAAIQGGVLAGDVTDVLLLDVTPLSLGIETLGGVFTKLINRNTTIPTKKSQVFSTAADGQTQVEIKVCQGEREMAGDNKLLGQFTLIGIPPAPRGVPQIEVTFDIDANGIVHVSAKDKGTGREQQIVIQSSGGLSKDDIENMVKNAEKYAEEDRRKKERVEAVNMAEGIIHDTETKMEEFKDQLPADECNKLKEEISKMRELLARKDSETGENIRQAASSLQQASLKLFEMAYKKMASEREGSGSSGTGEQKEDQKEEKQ
UniProt Q9BUP3: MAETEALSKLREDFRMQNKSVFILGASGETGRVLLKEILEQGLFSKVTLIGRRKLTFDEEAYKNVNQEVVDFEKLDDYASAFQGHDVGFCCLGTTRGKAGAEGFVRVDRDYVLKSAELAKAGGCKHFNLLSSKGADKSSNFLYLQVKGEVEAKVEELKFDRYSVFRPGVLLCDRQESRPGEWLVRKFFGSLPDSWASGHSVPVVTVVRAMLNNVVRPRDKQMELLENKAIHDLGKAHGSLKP

How the values were obtained:
Assay in all cases: protein microarray (ProtoArray v5.0), streptavidin-Alexa Fluor 647
Settings in all cases: 3'-biotin; 20 mM Tris (pH 7.5), 5 mM MgCl2, 100 mM KCl, 0.1% Tween-20, A/T-rich and random oligonucleotide blockers; temperature not stated; high values mean tight binding
[1] = biological target: T1, HP1BP3 (UniProt Q5SSJ5)
T1 sequence: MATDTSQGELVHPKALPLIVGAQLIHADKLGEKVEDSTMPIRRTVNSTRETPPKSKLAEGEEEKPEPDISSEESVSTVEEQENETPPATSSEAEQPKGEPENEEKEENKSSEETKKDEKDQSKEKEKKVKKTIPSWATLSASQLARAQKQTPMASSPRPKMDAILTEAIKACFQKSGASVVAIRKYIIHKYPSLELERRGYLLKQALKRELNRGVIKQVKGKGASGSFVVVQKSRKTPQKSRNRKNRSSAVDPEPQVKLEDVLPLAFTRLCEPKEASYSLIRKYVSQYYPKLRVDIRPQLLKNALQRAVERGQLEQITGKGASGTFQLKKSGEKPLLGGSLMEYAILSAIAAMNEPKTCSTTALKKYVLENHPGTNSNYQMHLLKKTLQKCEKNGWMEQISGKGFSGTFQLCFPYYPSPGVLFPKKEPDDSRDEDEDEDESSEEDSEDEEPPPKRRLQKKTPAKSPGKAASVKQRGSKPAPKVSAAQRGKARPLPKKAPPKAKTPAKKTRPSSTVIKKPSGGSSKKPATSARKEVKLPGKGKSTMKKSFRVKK

[2] = system: HPCAL1 (human)
[3] = system: HPGD (human)
[4] = system: HS2ST1 (human)
[5] = system: HS3ST1 (human)
[6] = system: HSBP1 (human)
[7] = system: HSD11B1 (human)
[8] = system: HSD3B2 (human)
[9] = biological target: HSP90B1 (UniProt P14625)
[10] = system: HSPA4 (human)
[11] = biological target: HSPA9 (UniProt P38646)
[12] = system: HSPBP1 (human)
[13] = system: HSPC111 (human)
[14] = system: HSPC142 (human)
[15] = biological target: HTATIP2 (UniProt Q9BUP3)
[16] = system: HYPK (human)
[17] = system: Hematopoietic lineage cell-specific protein (human)
[18] = system: Hemoglobin subunit mu (human)
[19] = system: Hexaprenyldihydroxybenzoate methyltransferase, mitochondrial (human)
[20] = system: Hexokinase-3 (human)

GGGGACAGGGGTATGGGGAGGGG [G4-3 biotinylated (CtG)]
binding signal [1]: 6.82 z-score | binding signal [2]: -0.336 z-score | binding signal [3]: -0.328 z-score | binding signal [4]: -0.318 z-score | binding signal [5]: -0.304 z-score and -0.33 z-score | binding signal [6]: -0.322 z-score | binding signal [7]: -0.318 z-score | binding signal [8]: -0.322 z-score | binding signal [9]: -0.303 z-score | binding signal [10]: -0.299 z-score | binding signal [11]: -0.325 z-score | binding signal [12]: -0.339 z-score | binding signal [13]: 9.11 z-score | binding signal [14]: -0.335 z-score | binding signal [15]: -0.318 z-score | binding signal [16]: -0.333 z-score | binding signal [17]: -0.315 z-score | binding signal [18]: -0.341 z-score | binding signal [19]: -0.342 z-score | binding signal [20]: -0.328 z-score
